The source of these data is doi:10.1101/2022.04.08.487705.

By UniProt entry, the sequences of proteins in these tests, tags left out. Residues count along the entry.
UniProt O08852, residues 24-4293: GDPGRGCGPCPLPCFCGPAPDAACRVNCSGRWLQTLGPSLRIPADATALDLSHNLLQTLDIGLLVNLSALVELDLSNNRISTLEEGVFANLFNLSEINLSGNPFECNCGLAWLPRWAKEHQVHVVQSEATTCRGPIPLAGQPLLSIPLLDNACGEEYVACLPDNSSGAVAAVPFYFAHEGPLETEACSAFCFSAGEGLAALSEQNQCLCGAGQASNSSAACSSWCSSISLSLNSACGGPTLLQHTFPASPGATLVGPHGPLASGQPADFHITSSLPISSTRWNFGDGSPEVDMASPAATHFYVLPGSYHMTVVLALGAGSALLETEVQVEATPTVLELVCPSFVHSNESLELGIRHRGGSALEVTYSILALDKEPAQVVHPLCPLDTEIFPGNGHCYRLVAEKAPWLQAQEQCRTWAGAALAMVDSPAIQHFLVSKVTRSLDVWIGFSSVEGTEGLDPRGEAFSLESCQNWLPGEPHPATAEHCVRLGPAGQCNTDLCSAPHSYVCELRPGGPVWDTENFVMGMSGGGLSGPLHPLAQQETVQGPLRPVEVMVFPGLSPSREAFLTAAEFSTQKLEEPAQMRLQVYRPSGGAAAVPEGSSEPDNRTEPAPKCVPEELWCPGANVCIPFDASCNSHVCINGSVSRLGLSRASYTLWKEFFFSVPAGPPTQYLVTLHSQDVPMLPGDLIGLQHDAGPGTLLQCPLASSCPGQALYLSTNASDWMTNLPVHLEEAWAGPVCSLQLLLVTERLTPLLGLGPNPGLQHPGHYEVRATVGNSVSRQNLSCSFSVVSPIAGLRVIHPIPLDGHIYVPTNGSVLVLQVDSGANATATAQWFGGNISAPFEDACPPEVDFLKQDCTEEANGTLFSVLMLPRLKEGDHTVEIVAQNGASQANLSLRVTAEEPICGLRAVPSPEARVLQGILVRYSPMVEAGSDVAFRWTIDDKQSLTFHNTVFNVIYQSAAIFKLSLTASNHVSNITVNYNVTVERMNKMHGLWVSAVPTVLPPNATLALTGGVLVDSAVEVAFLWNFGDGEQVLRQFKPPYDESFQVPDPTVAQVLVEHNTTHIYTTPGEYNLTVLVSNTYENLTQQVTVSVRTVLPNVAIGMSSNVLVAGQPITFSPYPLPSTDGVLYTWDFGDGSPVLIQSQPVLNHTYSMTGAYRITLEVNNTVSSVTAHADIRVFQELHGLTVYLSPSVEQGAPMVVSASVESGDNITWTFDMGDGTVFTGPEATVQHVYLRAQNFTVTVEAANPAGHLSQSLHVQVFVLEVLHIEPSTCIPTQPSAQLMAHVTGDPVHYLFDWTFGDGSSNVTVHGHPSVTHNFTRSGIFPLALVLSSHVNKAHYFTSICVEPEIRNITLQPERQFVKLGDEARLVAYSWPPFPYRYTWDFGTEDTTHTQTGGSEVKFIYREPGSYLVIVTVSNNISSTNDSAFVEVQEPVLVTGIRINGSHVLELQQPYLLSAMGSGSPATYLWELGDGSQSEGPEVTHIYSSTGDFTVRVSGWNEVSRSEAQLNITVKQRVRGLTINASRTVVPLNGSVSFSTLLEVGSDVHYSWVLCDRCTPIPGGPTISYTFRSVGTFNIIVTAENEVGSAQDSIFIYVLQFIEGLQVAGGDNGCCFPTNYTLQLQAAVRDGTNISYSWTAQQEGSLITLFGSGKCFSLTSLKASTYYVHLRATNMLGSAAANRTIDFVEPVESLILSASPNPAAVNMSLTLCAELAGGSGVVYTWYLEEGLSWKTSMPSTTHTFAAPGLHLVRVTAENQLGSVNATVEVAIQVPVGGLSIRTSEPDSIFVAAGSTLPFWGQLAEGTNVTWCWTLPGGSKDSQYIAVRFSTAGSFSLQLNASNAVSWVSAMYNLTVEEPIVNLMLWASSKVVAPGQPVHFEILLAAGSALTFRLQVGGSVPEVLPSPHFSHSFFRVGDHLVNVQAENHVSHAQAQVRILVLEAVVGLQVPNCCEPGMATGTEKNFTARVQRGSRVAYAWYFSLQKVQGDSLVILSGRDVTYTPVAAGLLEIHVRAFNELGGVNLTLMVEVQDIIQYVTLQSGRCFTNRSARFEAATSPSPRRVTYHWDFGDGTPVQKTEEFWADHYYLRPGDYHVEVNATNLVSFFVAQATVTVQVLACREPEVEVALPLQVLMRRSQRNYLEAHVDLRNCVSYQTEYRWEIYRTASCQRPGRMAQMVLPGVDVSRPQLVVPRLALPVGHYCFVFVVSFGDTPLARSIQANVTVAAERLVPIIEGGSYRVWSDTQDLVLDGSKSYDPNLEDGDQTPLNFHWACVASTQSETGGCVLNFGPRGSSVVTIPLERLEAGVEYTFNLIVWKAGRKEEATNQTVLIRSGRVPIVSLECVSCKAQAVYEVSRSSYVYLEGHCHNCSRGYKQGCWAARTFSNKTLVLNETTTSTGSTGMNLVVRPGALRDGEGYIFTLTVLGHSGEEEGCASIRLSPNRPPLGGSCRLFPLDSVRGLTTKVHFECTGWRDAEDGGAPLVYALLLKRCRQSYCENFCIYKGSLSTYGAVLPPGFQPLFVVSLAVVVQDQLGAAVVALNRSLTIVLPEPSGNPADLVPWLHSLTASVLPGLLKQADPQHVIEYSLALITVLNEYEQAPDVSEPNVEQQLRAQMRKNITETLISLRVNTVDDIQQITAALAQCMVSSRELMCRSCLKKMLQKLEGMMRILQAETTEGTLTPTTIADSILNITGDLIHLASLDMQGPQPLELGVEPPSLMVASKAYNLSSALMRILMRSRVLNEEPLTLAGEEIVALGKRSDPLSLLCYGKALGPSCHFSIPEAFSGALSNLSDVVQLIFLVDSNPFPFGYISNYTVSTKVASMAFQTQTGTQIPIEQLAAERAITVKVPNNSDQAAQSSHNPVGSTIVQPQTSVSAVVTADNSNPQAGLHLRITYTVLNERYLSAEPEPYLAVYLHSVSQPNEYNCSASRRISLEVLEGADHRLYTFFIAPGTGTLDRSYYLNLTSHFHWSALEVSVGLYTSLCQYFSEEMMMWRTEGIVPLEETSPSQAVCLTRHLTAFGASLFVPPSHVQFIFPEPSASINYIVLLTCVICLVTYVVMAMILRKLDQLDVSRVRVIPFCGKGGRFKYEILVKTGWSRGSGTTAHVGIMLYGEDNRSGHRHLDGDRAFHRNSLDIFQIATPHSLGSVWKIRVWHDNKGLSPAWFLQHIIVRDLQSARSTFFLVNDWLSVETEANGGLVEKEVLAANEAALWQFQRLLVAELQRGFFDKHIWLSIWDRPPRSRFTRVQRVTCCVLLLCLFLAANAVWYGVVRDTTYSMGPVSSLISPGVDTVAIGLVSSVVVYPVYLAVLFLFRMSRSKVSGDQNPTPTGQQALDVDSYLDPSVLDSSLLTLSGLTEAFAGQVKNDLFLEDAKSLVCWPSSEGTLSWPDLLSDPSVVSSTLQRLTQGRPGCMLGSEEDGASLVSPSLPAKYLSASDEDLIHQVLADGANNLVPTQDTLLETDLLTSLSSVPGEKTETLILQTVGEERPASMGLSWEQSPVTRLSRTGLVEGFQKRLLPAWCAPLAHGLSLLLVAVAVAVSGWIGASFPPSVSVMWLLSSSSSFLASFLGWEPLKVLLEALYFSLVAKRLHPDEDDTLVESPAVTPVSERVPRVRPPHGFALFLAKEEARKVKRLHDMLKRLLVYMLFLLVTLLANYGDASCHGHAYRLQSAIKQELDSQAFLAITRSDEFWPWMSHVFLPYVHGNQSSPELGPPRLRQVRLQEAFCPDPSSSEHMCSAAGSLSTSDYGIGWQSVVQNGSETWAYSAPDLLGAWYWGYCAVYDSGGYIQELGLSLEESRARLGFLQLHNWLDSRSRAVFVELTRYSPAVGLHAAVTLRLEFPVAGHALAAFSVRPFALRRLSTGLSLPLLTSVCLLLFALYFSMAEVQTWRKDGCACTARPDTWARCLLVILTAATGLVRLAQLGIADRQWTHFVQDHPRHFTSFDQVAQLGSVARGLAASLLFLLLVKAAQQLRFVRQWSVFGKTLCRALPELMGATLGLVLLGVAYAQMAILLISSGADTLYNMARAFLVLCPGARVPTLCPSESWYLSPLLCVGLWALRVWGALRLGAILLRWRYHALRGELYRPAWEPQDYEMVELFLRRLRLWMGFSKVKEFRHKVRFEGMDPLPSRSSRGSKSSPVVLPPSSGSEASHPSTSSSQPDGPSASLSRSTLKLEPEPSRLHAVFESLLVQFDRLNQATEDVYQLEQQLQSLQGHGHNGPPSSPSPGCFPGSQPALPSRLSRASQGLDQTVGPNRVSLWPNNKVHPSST

For the experiment, the target named is tagged polycystin-1 (PC1-eGFP), product of the Pkd1^eGFP knock-in allele (mouse) (UniProt O08852). Briefly: co-IP.

Results are given in words; binding and its absence hold for the method and conditions named. In cells and extracts the contact can be indirect. Some results given as binding are weak or reduced against the parent protein; the word gives no strength.

B1: Polycystin-2 (protein, UniProt O35245 1-966)
chain: MVNSRRVQPQPPGDAGRSPAPRASGPGRLVAGGAGLAVPGGLGEQRGLEIEMERIRQAAARDPPAGASASPSPPLSSCSRQAWSRDNPGFEAEEDDDDDEVEGEEGGMVVEMDVEWRPGSRRSASSSAVSSVGARGRGLGSYRGAAHLSGRRRRLEDQGAQCPSPAGGGDPLHRHLPLEGQPPRVAWAERLVRGLRGLWGTRLMEESNANREKYLKSVLRELVTYLFFLVVLCILTYGMMSSNVYYYTRTLSQLFIDTPVSKTEKTNFKTLSSMEDFWKFTEGSFLDGLYWKAQTSNHTQADNRSFIFYENLLLGVPRLRQLRVRNGSCSIPQDLRDEIKECYDVYSVSSEDRAPFGPRNGTAWMYTSEKELNGSSHWGIIASYSGAGYYLDLSRTREETAAQLAGLRRNFWLDRGTRAAFIDFSVYNANINLFCVVRLLAEFPATGGVVPSWQFQPVKLIRYVTAFDFFLAACEIIFCFFIIYYVVEEILEIRIHRLSYFRSFWNCLDVVIVVLSVVAMVINIYRMSNAEGLLQFLEDQNSFPNFEHVAYWQIQFNNISAVMVFLVWIKLFKFINFNRTMSQLSTTMSRCAKDLFGFTIMFSIIFLAYAQLAYLVFGTQVDDFSTFQECIFTQFRIILGDINFAEIEEANRVLGPLYFTTFVFFMFFILLNMFLAIINDSYSEVKSDLAQQKAEMELSDLIRKGCQKALVKLKLKRNTVDAISESLRQGGGKLNFDELRQDLKGKGHTDAEIEAIFTKYDQDGDQELTEREHQQMRDDLEKEREDLDLEHSSLPRPMSSRSFPRSLDDSEEEDDEDSGHSSRRRGSISSGVSYEEFQVLVRRVDRMEHSIGSIVSKIDAVIVKLEIMERAKLKRREVLGRLLDGVAEDARLGRDSEIHREQMERLVREELERWESDDAASQTGHGVSTQVGLGGQPHPRNPRPPSSQSAEGLEGGGGNGSANVHA
B1: the binding entry is given as “binds”.

B2: nicotinamide nucleotide transhydrogenase (Nnt) (protein, UniProt Q61941 44-1086)
chain: CKSPVKPGIPYKQLTVGVPKEIFQNEKRVALSPAGVQALVKQGFNVVVESGAGEASKFPDDLYRAAGAQIQGMKEVLASDLVVKVRAPMVNPTLGAHEADFLKPSGTLISFIYPAQNPDLLNKLSERKTTVLAMDQVPRVTIAQGYDALSSMANISGYKAVVLAANHFGRFFTGQITAAGKVPPAKILIVGGGVAGLASAGAAKSMGAVVRGFDTRAAALEQFKSLGAEPLEVDLKESGEGQGGYAKEMSKEFIEAEMKLFAQQCKEVDILISTALIPGKKAPVLFSKEMIESMKEGSVVVDLAAEAGGNFETTKPGELYVHKGITHIGYTDLPSRMATQASTLYSNNITKLLKAISPDKDNFHFEVKDDFDFGTMSHVIRGTVVMKDGKVIFPAPTPKNIPEEAPVKPKTVAELEAEKAGTVSMYTKTLTTASVYSAGLTGMLGLGIVAPNVAFSQMVTTFGLAGIIGYHTVWGVTPALHSPLMSVTNAISGLTAVGGLALMGGHFYPSTTSQSLAALATFISSVNIAGGFLVTQRMLDMFKRPTDPPEYNYLYLLPGGTFVGGYLAALYGGYNIEEIMYLGSGLCCVGALGGLSTQGTARLGNALGMIGVAGGLAATLGGLKPDPQLLAQMSGAMAMGGTIGLTIAKRIQISDLPQLVAAFHSLVGLAAVLTCMAEYIVEYPHFAMDATSNFTKIVAYLGTYIGGVTFSGSLVAYGKLQGILKSAPLLLPGRHALNAGLLAASVGGIIPFMADPSFTTGITCLGSVSGLSTLMGVTLTAAIGGADMPVVITVLNSYSGWALCAEGFLLNNNLLTIVGALIGSSGAILSYIMCVAMNRSLANVILGGYGTTSTAGGKPMEISGTHTEINLDNAVEMIREANSIVITPGYGLCAAKAQYPIADLVKMLTEQGKKVRFGIHPVAGRMPGQLNVLLAEAGVPYDIVLEMDEINSDFPDTDLVLVIGANDTVNSAAQEDPNSIIAGMPVLEVWKSKQVIVMKRSLGVGYAAVDNPIFYKPNTAMLLGDAKKTCDALQAKVRESYQK
Consider B2, for which the binding result is “binds”.
